# “And” between values parts separate entries of the source, which are not always exact repeats. Equal values may be shown once. Where a name gives a salt, the structure may show the parent alone. ± gives the standard deviation of the averaged measurements. The list shows a part of the results, in another mix than the full data. This data set is noisy: repeats of one test often differ as much as different tests do.
# System: FaDu
# Assay: mitochondrial oxygen consumption rate normalised to cell number, Z score over the library; higher = higher oxygen consumption (negative = OCR reduction)
# Conditions: treatment time 24 h, assay medium: 5 mM galactose, 5 mM pyruvate, 4 mM glutamine
# Experimental: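 Primary screen: FaDu cells were incubated 24 h with Pharmakon 1600 / TDI oncology set compounds at 2 or 10 uM. Mitochondrial-specific OCR (basal minus 2 uM antimycin A) was measured on a Seahorse XF96 in assay medium with 5 mM galactose, 5 mM pyruvate and 4 mM glutamine, then corrected for Hoechst cell number and expressed as a Z score […]. Compounds that cut cell number by >66% were excluded. Two repeats.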
Structure (SMILES),mitochondrial oxygen consumption rate normalised (2 µM),mitochondrial oxygen consumption rate normalised (10 µM)
NNC(=O)c1ccncc1.Nc1ccc(C(=O)O)c(O)c1,-0.765 ± 0.32,
CC(O)(CC(=O)O)CC(=O)O,1.24 ± 0.54,
CCCc1nn(C)c2c(=O)[nH]c(-c3cc(S(=O)(=O)N4CCN(C)CC4)ccc3OCC)nc12,0.477 ± 0.56,
O=[N+]([O-])c1ccc(O)c2ncccc12,0.474 ± 0.078,-2.21 ± 0.14
NC1CCN(c2c(F)cc3c(=O)c(C(=O)O)cn(C4CC4)c3c2Cl)C1 (stereo not given),-0.146 ± 0.91,
CC(=O)Nc1ccc(OC(C)=O)cc1,0.372 ± 0.65,
CCC1(C)CC(=O)NC1=O (stereo not given),0.0384 ± 0.26,
CC(NCCc1ccc(O)cc1)C(O)c1ccc(O)cc1 (stereo not given),0.572 ± 0.11,
CCCNC(C)(C)COC(=O)c1ccccc1,-0.403 ± 0.22,
O=S(=O)(c1cccc2cnccc12)N1CCCNCC1,0.105 ± 0.29,
CCc1nn(CCCN2CCN(c3cccc(Cl)c3)CC2)c(=O)n1CCOc1ccccc1,0.803 ± 0.83,
Nc1nc(/C(=C/CC(=O)O)C(=O)N[C@@H]2C(=O)N3C(C(=O)O)=CCS[C@H]23)cs1,0.329 ± 1.4,
NCCCS(=O)(=O)O,0.496 ± 0.0095,
CCC(=O)O[C@]1(C(=O)SCF)[C@H](C)C[C@H]2[C@@H]3C[C@H](F)C4=CC(=O)C=C[C@]4(C)[C@@]3(F)[C@@H](O)C[C@@]21C,0.0879 ± 1.8,
C[C@H](N[C@@H](CCc1ccccc1)C(=O)O)C(=O)N1Cc2ccccc2C[C@H]1C(=O)O,0.628 ± 1.2,
Nc1ccc(/N=N/c2ccccc2)c(N)n1,-1.02 ± 0.71,
CN(C)CCOC(=O)C(c1ccccc1)C1(O)CCCC1 (stereo not given),-0.414 ± 1.6,
CCc1cc(Cl)c(OC)c(C(=O)NC[C@@H]2CCCN2CC)c1O,-1.29 ± 0.25,
Clc1ccc(C(c2ccccc2Cl)C(Cl)Cl)cc1 (stereo not given) [Mitotane;  o;p'-DDD],0.258 ± 0.31,
Clc1ccc(C(c2ccccc2Cl)C(Cl)Cl)cc1 (stereo not given),0.26 ± 0.45,
O=C1O[C@H]([C@@H](O)CO)C(O)=C1O,0.715 ± 0.17,
CC(=O)Nc1ccc(S(=O)(=O)c2ccc(NC(C)=O)cc2)cc1,-0.481 ± 0.99,
OCCc1ccccc1,0.82 ± 0.87,
O=C(O)c1ccccc1Nc1cccc(C(F)(F)F)c1,-0.00453 ± 0.27,
Nc1ccc(C(=O)O)c(O)c1,0.672 ± 0.98,

Structure (SMILES),mitochondrial oxygen consumption rate normalised (2 µM),mitochondrial oxygen consumption rate normalised (10 µM)
CCOC(N)=O,-0.265 ± 0.019,
O=C1c2cccc(O)c2C(=O)c2c(O)cccc21,-0.108 ± 1.1,
CSCC[C@H](NC(=O)[C@H](Cc1c[nH]c2ccccc12)NC(=O)CCNC(=O)OC(C)(C)C)C(=O)N[C@@H](CC(=O)O)C(=O)N[C@@H](Cc1ccccc1)C(N)=O,0.561 ± 1.5,
CC(C)NNC(=O)c1ccncc1,-0.238 ± 0.14,
OC(CCN1CCCCC1)(c1ccccc1)c1ccccc1,-0.959 ± 0.83,
CCCCC(=O)N(Cc1ccc(-c2ccccc2-c2nnn[nH]2)cc1)[C@H](C(=O)O)C(C)C,-0.408 ± 0.51,
CCN(CC)CCNC(=O)c1cc(Br)c(N)cc1OC,-0.682 ± 0.13,
Cc1ccc(Nc2nccc(N(C)c3ccc4c(C)n(C)nc4c3)n2)cc1S(N)(=O)=O [Pazopanib HCl],0.605 ± 0.26,
CO[C@H]1C[C@H](O[C@@H]2/C(C)=C/C[C@@H]3C[C@@H](C[C@]4(CC[C@H](C)[C@@H](C5CCCCC5)O4)O3)OC(=O)[C@@H]3C=C(C)/C(=N/O)[C@H]4OC/C(=C\C=C\[C@@H]2C)[C@]43O)O[C@@H](C)[C@@H]1O,0.631 ± 1.1,
Cc1nc2sccn2c(=O)c1CCN1CCC(=C(c2ccc(F)cc2)c2ccc(F)cc2)CC1,-0.216 ± 0.14,
C[C@H](CCC(=O)O)[C@H]1CC[C@H]2[C@@H]3C(=O)C[C@@H]4CC(=O)CC[C@]4(C)[C@H]3CC(=O)[C@]12C,0.323 and 0.199,
COC(=O)/C=C/C(=O)OC,0.0211 ± 0.47,
OC[C@H]1O[C@@H](O[C@H]2[C@H](O)[C@@H](O)C(O)O[C@@H]2CO)[C@H](O)[C@@H](O)[C@H]1O (stereo not given in full),-0.885 ± 0.082,
C[N+](C)(C)CCOC(N)=O,0.487 ± 0.87,
CC(C)(C)NC[C@H](O)COc1cccc2c1CCCC2=O,-0.373 ± 0.2,
O=C(NC(Cc1cc(=O)[nH]c2ccccc12)C(=O)O)c1ccc(Cl)cc1 (stereo not given),-0.591 ± 0.17,
CN(C)CCc1c[nH]c2ccc(CS(=O)(=O)N3CCCC3)cc12,0.0964 ± 0.23,
N[C@@H](Cc1ccc(O)c(O)c1)C(=O)O,-1.31 ± 1,
CN1CCN2c3ccccc3Cc3ccccc3C2C1 (stereo not given),-0.729 ± 0.86,
O=C(O)CCC(=O)c1ccc(-c2ccccc2)cc1,0.854 ± 0.82,
Cc1ccccc1C(OCCN(C)C)c1ccccc1 (stereo not given),-0.973 ± 0.92,
O=C1C(O)=C([C@H]2CC[C@H](c3ccc(Cl)cc3)CC2)C(=O)c2ccccc21,0.257 ± 0.84,
COc1c2ccoc2cc2oc(=O)ccc12,-0.787 ± 0.19,
NC(=O)NC1NC(=O)NC1=O (stereo not given),0.0997 ± 0.32,

# Part of the list above, bar-delimited:
Structure (SMILES) | mitochondrial oxygen consumption rate normalised (2 µM) | mitochondrial oxygen consumption rate normalised (10 µM)
C[C@H](CCC(=O)O)[C@H]1CC[C@H]2[C@@H]3C(=O)C[C@@H]4CC(=O)CC[C@]4(C)[C@H]3CC(=O)[C@]12C | 0.323 and 0.199 | 
COC(=O)/C=C/C(=O)OC | 0.0211 ± 0.47 | 
OC[C@H]1O[C@@H](O[C@H]2[C@H](O)[C@@H](O)C(O)O[C@@H]2CO)[C@H](O)[C@@H](O)[C@H]1O (stereo not given in full) | -0.885 ± 0.082 | 

# Source: the supplement of paper PMC4962491
